Assay results as given in PMC4951807.
No constants are given. Whether binding was seen depends on the method and setting. In cells and extracts the contact can be indirect. Some results given as binding are weak or reduced against the parent protein; the word gives no strength.

Protein sequences, listed by entry. Tags and fused reporters are not part of them.
UniProt O35433: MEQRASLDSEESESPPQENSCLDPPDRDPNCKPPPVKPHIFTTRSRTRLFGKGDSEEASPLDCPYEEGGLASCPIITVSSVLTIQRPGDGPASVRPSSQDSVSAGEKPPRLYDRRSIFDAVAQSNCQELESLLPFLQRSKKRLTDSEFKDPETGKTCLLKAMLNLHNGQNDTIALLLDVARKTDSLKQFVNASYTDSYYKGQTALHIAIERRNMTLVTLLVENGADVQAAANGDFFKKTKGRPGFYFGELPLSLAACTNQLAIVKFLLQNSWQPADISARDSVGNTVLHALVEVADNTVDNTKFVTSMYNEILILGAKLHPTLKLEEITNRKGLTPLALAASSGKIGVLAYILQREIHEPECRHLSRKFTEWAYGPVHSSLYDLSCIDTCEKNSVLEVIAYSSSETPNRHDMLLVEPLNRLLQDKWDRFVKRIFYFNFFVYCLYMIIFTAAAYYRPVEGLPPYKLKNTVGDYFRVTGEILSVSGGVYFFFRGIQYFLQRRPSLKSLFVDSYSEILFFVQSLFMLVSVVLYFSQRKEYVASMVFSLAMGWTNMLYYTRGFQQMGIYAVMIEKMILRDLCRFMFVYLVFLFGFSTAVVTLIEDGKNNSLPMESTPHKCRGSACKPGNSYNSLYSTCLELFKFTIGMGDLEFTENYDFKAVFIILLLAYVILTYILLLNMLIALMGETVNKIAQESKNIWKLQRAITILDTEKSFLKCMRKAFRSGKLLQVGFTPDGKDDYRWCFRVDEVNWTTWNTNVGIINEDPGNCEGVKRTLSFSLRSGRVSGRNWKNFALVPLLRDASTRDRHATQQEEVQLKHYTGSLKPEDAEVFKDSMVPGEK
UniProt Q9ERZ8: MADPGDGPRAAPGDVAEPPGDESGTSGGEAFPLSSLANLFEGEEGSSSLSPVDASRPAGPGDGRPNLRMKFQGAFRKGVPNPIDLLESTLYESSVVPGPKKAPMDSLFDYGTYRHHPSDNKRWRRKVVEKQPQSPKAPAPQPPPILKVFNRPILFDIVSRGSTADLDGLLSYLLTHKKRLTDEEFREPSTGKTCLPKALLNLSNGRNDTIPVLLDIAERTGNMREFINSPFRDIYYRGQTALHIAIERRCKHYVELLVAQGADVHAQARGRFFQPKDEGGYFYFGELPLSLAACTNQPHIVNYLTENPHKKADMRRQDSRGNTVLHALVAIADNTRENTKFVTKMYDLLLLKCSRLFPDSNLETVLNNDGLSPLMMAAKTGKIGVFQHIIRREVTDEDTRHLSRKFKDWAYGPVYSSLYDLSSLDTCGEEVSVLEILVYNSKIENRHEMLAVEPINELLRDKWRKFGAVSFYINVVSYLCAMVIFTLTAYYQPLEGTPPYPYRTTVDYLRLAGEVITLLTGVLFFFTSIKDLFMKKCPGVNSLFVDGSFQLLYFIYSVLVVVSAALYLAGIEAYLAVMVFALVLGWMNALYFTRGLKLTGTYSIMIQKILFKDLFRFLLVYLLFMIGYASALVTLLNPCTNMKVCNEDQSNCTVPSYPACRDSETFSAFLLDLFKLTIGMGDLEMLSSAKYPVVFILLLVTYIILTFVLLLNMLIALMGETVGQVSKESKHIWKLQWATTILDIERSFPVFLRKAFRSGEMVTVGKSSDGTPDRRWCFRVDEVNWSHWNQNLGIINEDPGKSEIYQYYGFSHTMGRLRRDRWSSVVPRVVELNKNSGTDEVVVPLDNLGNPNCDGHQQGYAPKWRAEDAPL

Experiments:
[1] = target: transient receptor potential vanilloid 1 (TRPV1) (rat (endogenous in primary SFO neurons)) (UniProt O35433); assay: co-IP; primary SFO neuron lysate; precipitated with anti-TRPV4, anti-TRPV1 or anti-HO-2 antibody and Protein A/G Plus-Agarose beads, 4 °C overnight, washed thrice with PBS; blots for HO-2, HO-1, TRPV4, TRPV1; neurons with or without hypoxia (superfusion with hypoxic medium for 2 min)
[2] = target: transient receptor potential vanilloid 4 (TRPV4) (rat (endogenous in primary SFO neurons)) (UniProt Q9ERZ8); assay: as above

| binding [1] | binding [2] | Binder |
| --- | --- | --- |
| no binding | binds | hemeoxygenase-2 (HO-2) (enzyme, UniProt P23711 1-315) MSSEVETSEGVDESENNSTAPEKENHTKMADLSELLKEGTKEAHDRAENTQFVKDFLKGNIKKELFKLATTALYFTYSALEEEMDRNKDHPAFAPLYFPTELHRKEALIKDMEYFFGENWEEQVKCSEAAQKYVDRIHYVGQNEPELLVAHAYTRYMGDLSGGQVLKKVAQRALKLPSTGEGTQFYLFEHVDNAQQFKQFYRARMNALDLSMKTKERIVEEANKAFEYNMQIFSELDQAGSMLTKETLEDGLPVHDGKGDVRKCPFYAAQPDKGTLGGSNCPFRTAMAVLRKPSLQLILAASVALVAGLLAWYYM |
| no binding | no binding | HO-1 (enzyme, UniProt P06762 1-289) MERPQLDSMSQDLSEALKEATKEVHIRAENSEFMRNFQKGQVSREGFKLVMASLYHIYTALEEEIERNKQNPVYAPLYFPEELHRRAALEQDMAFWYGPHWQEAIPYTPATQHYVKRLHEVGGTHPELLVAHAYTRYLGDLSGGQVLKKIAQKAMALPSSGEGLAFFTFPSIDNPTKFKQLYRARMNTLEMTPEVKHRVTEEAKTAFLLNIELFEELQALLTEEHKDQSPSQTEFLRQRPASLVQDTTSAETPRGKSQISTSSSQTPLLRWVLTLSFLLATVAVGIYAM |
